Measurements from PMC4867598.
Results are given in words; binding and its absence hold for the method and conditions named. In cells and extracts the contact can be indirect. Some binding calls cover weakened binding; strength is not graded here.

The chains behind the UniProt entries cited, without tags or fusion partners. Residues count along the entry.
UniProt P00750, residues 36-562: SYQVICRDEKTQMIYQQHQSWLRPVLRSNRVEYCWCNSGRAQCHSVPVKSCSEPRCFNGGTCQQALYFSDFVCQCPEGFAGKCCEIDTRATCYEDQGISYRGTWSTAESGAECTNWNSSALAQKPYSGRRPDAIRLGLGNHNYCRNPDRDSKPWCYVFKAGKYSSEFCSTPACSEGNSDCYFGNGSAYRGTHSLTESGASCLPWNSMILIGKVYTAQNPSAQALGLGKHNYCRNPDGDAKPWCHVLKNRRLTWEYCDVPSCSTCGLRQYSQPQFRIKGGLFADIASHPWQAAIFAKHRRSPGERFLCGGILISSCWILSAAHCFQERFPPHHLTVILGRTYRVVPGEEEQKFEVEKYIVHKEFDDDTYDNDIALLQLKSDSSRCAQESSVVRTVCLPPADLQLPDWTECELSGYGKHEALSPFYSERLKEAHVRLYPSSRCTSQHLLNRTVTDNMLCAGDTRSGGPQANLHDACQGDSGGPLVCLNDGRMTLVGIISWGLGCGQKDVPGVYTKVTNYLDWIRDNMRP
UniProt Q01097, residues 27-1482: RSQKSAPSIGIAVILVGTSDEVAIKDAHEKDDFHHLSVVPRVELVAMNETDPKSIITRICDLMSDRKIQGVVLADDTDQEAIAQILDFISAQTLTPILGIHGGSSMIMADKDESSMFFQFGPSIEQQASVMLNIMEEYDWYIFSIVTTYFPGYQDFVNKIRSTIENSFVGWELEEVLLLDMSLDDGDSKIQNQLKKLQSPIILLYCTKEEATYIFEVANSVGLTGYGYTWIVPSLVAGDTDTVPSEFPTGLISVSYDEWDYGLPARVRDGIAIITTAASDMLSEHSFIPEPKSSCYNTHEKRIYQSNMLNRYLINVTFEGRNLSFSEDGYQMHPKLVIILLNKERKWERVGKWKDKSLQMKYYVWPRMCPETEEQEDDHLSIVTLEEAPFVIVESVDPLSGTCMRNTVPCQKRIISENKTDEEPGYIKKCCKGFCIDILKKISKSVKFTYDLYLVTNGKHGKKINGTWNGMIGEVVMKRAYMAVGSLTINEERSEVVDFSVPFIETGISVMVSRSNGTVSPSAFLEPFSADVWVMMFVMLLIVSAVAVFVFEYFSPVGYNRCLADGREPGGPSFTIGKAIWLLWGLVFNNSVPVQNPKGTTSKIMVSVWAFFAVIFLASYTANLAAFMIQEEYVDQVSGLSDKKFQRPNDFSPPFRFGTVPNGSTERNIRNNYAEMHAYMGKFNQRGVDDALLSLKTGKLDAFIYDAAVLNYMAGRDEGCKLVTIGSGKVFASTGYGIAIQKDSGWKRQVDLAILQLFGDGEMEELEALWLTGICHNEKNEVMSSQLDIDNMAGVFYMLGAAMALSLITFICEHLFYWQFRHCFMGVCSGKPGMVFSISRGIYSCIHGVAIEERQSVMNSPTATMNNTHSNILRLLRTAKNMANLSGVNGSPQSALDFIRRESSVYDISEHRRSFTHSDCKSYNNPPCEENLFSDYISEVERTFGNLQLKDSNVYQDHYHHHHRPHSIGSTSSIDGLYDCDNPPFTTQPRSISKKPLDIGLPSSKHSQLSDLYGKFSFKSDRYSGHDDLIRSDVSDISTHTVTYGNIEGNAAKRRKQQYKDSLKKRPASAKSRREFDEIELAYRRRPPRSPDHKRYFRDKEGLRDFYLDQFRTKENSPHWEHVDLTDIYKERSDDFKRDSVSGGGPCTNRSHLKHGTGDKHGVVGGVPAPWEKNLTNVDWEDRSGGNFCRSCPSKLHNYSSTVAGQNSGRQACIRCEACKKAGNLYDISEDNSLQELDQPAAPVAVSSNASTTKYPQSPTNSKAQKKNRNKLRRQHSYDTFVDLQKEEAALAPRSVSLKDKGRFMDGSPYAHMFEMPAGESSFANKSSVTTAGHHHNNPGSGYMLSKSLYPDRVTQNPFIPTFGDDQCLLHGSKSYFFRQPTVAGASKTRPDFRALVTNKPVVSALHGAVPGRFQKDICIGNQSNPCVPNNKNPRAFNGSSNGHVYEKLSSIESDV

Molecular target: tissue plasminogen activator (exogenous; Actilyse) (UniProt P00750)
Assay: co-IP; extracts of ischemic brain hemispheres of mice 24 hours after MCA occlusion, RIPA lysis buffer; 500 ug lysate with anti-NR2B or anti-tPA antibody or normal IgG overnight at 4 °C, Protein A agarose, Western blot; mice treated with vehicle, tPA, rADAMTS 13 + tPA, or rADAMTS 13

- binding: binds
Substance: NMDA receptor subunit NR2B (from UniProt Q01097 27-1482)
